PubChem BioAssay AID1508588 – Peter MacCallum Cancer Centre, 2020
Here is an unselected part of about 18,000 reagents. Of all reagents, 790 (4.4%) are marked active. 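Calls rest on a combination of fold-change classes in drug and vehicle arms, not all shown here.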

Test: 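Knock-downs boosting vemurafenib effects on melanoma cell growth or lactate release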 (primary screen)
Cells: human WM266.4 melanoma cells (BRAF V600 mutant)
Reagents: siRNA pool against human genes, 40 nM
Duration: 96 h from transfection to read-out
Treatment: vemurafenib 300 nM (about IC25), added 48 h after transfection, for 48 h; comparison arm got DMSO vehicle only
Detection: 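Ratios to non-targeting siRNA for cell gain, counted as DAPI nuclei after minus before drug and averaged over two replicates, and for absorbance-read medium lactate per cell; both binned into fold-change classes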
Direction: cell gain with vemurafenib: higher = more cell gain than with non-targeting siRNA; lactate per cell with vemurafenib: higher = more lactate made per cell
Call rule: 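a knock-down counts as enhancing when its fold-change classes with vehicle and with vemurafenib, taken together, show a stronger drug effect on cell gain or lactate per cell; exact class pairs not stated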
Calls: active = enhances vemurafenib effect; inactive = no enhancement seen

Target gene	cell gain with vemurafenib	lactate per cell with vemurafenib	call
FKBP7 (FKBP prolyl isomerase 7)	0.42	1.24	inactive
MAT2A (methionine adenosyltransferase 2A)	0.05	1.7	inactive
BNIPL (BCL2 interacting protein like)	0.64	0.7	inactive
GFOD2 (Gfo/Idh/MocA-like oxidoreductase domain containing 2)	0.48	1.57	inactive
SEPTIN14 (septin 14)	0.35	0.68	active
ALX3 (ALX homeobox 3)	0.34	0.34	inactive
STAT5A (signal transducer and activator of transcription 5A)	0.34	0.72	inactive
PNKD (PNKD metallo-beta-lactamase domain containing)	-0.06	1.54	inactive
OLIG2 (oligodendrocyte transcription factor 2)	1	0.74	inactive
GNAS (GNAS complex locus)	0.38	1.94	inactive
TAS2R46 (taste 2 receptor member 46)	0.53	1.08	inactive
CEP72 (centrosomal protein 72)	-0.08	1.96	inactive
ADPRM (ADP-ribose/CDP-alcohol diphosphatase, manganese dependent)	0.84	0.88	inactive
MROH9 (maestro heat like repeat family member 9)	0.81	0.86	inactive
PIGT (phosphatidylinositol glycan anchor biosynthesis class T)	0.22	0.28	inactive
RFX1 (regulatory factor X1)	0.3	1.52	inactive
TULP4 (TUB like protein 4)	0.49	0.76	inactive
FLYWCH1 (FLYWCH-type zinc finger 1)	0.26	1.22	inactive
MYH8 (myosin heavy chain 8)	0.77	0.83	inactive
OR6C1 (olfactory receptor family 6 subfamily C member 1)	0.29	1.29	inactive
SLC19A4P	0.26	0.57	inactive
KLHL8 (kelch like family member 8)	0.99	1.23	inactive
SLC7A5	0.63	0.94	inactive
GFAP (glial fibrillary acidic protein)	0.37	1.41	inactive
JAM2 (junctional adhesion molecule 2)	0.72	0.66	inactive
PYROXD2 (pyridine nucleotide-disulphide oxidoreductase domain 2)	0.18	0.48	active
PLP2 (proteolipid protein 2)	0.41	0.7	active
FAS (Fas cell surface death receptor)	0.33	0.73	inactive
PRTFDC1 (phosphoribosyl transferase domain containing 1)	0.4	1.04	inactive
TERT (telomerase reverse transcriptase)	0.73	0.72	inactive
TULP2 (TUB like protein 2)	0.05	1.55	inactive
POLR2B (RNA polymerase II subunit B)	0.09	0.87	inactive
TM4SF1 (transmembrane 4 L six family member 1)	0.73	1.6	inactive
PRDX5 (peroxiredoxin 5)	0.72	0.8	inactive
P4HA2 (prolyl 4-hydroxylase subunit alpha 2)	0.62	1.24	inactive
KLHL1 (kelch like family member 1)	0.66	0.12	inactive
PPP1R7 (protein phosphatase 1 regulatory subunit 7)	0.59	0.63	inactive
ZNF416 (zinc finger protein 416)	0.73	1.34	inactive
PROKR2 (prokineticin receptor 2)	0.81	0.9	inactive
ZNF211 (zinc finger protein 211)	0.51	1.02	inactive
FUT5 (fucosyltransferase 5)	0.27	0.73	inactive
SEPTIN7 (septin 7)	0.72	0.77	inactive
DNAJC22 (DnaJ heat shock protein family (Hsp40) member C22)	0.82	0.5	inactive
AHI1 (Abelson helper integration site 1)	0.61	0.5	inactive
BAG5 (BAG cochaperone 5)	0.72	0.55	inactive
CLCN6 (Cl-/H+ antiporter 6)	0.34	0.98	inactive
PARP4 (poly(ADP-ribose) polymerase family member 4)	0.8	0.86	inactive
OR2AG1 (olfactory receptor family 2 subfamily AG member 1)	0.64	0.8	inactive
CDC26 (cell division cycle 26)	0.64	0.79	inactive
ARHGEF1 (Rho guanine nucleotide exchange factor 1)	0.76	1.54	inactive
CCR9 (C-C motif chemokine receptor 9)	0.48	0.94	inactive
SIPA1 (signal-induced proliferation-associated 1)	0.77	1.1	inactive

Next part; the last 2 above are carried over.
Target gene	cell gain with vemurafenib	lactate per cell with vemurafenib	call
CCR9 (C-C motif chemokine receptor 9)	0.48	0.94	inactive
SIPA1 (signal-induced proliferation-associated 1)	0.77	1.1	inactive
TRIM71 (tripartite motif containing 71)	0.71	1.45	inactive
AAMP (angio associated migratory cell protein)	0.39	0.82	inactive
MYRFL (myelin regulatory factor like)	0.51	0.9	inactive
OR14A16 (olfactory receptor family 14 subfamily A member 16)	0.92	0.48	inactive
TMEM129 (transmembrane protein 129, E3 ubiquitin ligase)	0.69	1.67	inactive
SLC29A1	0.22	1.03	inactive
MTCL1 (microtubule crosslinking factor 1)	1.07	1.03	inactive
POU5F2 (POU domain class 5, transcription factor 2)	0.68	0.2	inactive
UACA	0.9	0.64	inactive
TAAR6 (trace amine associated receptor 6)	0.53	0.9	inactive
N4BP3 (NEDD4 binding protein 3)	0.62	0.48	inactive
DPEP3 (dipeptidase 3)	0.39	0.97	inactive
CHCHD4 (coiled-coil-helix-coiled-coil-helix domain containing 4)	0.64	0.52	inactive
SYT9 (synaptotagmin 9)	0.11	1.15	inactive
RHOA (ras homolog family member A)	0.26	0.88	inactive
GJB3 (gap junction protein beta 3)	0.42	2.18	inactive
ZNF792 (zinc finger protein 792)	0.42	1.93	inactive
BNIP2 (BCL2 interacting protein 2)	0.71	0.63	inactive
C1orf122 (chromosome 1 open reading frame 122)	0.84	1.06	inactive
CDC25A (cell division cycle 25A)	0.48	1.43	inactive
LEKR1 (leucine, glutamate and lysine rich 1)	0.12	2.21	inactive
HSDL1 (hydroxysteroid dehydrogenase like 1)	0.45	1.7	inactive
ARG2 (arginase 2)	0.36	2.01	inactive
PPM1M (protein phosphatase, Mg2+/Mn2+ dependent 1M)	0.89	0.67	inactive
LRFN3	0.05	1.4	inactive
PRAMEF10 (PRAME family member 10)	0.7	0.88	inactive
SUSD2 (sushi domain containing 2)	0.28	2.44	inactive
MAP1LC3A (microtubule associated protein 1 light chain 3 alpha)	0.95	1.1	inactive
NCBP2 (nuclear cap binding protein subunit 2)	0.1	1.88	inactive
ACBD3 (acyl-CoA binding domain containing 3)	0.3	0.99	inactive
IGFL3 (IGF like family member 3)	-0.11	1.17	inactive
INPP1 (inositol polyphosphate-1-phosphatase)	0.55	1.24	inactive
